# Assay results published in the supplement of paper PMC10032668.
# Chains of the proteins cited; added tags and fusions are not shown.
# CCNT1, O60563, UniProt O60563, whole entry: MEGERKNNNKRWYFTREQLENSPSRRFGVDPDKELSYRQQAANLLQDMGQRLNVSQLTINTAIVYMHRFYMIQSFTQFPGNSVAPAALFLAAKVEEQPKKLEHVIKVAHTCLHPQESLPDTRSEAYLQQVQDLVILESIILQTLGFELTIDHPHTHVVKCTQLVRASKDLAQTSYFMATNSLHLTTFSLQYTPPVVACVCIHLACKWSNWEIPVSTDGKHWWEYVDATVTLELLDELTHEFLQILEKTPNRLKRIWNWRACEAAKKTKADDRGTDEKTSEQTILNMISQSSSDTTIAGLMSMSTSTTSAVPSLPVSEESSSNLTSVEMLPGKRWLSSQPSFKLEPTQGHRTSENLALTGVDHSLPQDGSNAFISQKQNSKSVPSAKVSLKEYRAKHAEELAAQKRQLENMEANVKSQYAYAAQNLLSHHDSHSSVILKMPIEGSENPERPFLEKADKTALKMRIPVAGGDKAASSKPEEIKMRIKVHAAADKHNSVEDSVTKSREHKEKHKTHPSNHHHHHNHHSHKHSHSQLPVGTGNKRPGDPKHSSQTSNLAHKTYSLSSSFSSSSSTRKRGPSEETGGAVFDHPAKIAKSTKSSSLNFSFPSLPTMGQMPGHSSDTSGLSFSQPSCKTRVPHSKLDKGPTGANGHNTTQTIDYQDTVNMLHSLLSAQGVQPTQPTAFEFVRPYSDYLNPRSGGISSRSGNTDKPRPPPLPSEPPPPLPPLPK
# EIF1B, O60739, UniProt O60739, whole entry: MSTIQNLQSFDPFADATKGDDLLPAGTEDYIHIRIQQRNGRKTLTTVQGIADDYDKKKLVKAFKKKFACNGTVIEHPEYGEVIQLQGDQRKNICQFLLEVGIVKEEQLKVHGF
# MAGOHB, Q96A72, UniProt Q96A72, whole entry: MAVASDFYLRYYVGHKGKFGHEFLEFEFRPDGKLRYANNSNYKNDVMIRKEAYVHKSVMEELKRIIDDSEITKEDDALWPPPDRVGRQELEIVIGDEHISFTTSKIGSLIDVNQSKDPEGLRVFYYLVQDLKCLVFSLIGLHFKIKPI
# SNX1, Q13596, UniProt Q13596, whole entry: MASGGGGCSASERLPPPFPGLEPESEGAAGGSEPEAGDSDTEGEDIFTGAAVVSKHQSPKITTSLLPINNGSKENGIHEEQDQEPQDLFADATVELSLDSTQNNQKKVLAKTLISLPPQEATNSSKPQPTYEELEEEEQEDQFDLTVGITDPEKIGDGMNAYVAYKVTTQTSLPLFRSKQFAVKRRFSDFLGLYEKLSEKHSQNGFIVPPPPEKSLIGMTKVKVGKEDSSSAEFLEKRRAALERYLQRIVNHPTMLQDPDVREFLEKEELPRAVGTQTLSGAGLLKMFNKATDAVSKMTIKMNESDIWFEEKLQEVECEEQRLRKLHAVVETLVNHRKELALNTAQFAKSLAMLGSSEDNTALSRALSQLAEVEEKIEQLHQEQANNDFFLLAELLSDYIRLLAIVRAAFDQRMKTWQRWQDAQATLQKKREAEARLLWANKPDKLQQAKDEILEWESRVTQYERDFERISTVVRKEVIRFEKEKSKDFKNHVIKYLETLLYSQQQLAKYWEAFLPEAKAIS
# CRIPT, Q9P021, UniProt Q9P021, whole entry: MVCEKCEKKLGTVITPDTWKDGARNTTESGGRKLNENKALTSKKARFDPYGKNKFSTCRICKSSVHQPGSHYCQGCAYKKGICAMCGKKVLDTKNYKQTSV
# PPP1CA, P62136, UniProt P62136, whole entry: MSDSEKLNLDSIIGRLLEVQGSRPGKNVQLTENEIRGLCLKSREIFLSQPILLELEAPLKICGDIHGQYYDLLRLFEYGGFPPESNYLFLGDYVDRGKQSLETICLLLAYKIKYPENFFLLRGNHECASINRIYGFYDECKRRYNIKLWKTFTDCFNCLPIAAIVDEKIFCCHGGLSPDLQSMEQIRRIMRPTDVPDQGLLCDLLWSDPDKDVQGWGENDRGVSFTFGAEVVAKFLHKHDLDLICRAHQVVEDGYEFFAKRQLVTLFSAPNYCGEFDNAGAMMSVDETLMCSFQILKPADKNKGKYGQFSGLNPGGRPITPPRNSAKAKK
# RPS6KA3, P51812, UniProt P51812, whole entry: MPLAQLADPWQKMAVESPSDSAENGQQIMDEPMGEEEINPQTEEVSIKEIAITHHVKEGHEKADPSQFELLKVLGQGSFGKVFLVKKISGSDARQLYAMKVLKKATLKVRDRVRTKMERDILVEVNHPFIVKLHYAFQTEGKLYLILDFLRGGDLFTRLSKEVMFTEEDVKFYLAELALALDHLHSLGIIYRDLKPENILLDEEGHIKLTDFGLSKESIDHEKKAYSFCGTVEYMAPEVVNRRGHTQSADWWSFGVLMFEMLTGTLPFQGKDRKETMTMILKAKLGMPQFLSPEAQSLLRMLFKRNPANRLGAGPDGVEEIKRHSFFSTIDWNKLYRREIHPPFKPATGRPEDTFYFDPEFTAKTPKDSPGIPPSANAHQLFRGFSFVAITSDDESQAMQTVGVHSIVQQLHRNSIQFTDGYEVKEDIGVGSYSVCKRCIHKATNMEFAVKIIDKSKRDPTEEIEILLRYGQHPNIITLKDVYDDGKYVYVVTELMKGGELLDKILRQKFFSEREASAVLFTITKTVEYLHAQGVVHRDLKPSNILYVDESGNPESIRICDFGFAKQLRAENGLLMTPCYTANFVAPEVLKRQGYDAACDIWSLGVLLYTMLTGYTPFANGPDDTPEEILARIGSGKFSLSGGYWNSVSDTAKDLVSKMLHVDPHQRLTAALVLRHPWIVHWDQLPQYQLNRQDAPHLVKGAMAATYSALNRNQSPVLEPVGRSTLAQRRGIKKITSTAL
# COX6B1, P14854, UniProt P14854, whole entry: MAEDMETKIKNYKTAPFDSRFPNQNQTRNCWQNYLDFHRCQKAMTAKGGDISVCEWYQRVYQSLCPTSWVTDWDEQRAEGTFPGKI
# DNM1L, O00429, UniProt O00429, whole entry: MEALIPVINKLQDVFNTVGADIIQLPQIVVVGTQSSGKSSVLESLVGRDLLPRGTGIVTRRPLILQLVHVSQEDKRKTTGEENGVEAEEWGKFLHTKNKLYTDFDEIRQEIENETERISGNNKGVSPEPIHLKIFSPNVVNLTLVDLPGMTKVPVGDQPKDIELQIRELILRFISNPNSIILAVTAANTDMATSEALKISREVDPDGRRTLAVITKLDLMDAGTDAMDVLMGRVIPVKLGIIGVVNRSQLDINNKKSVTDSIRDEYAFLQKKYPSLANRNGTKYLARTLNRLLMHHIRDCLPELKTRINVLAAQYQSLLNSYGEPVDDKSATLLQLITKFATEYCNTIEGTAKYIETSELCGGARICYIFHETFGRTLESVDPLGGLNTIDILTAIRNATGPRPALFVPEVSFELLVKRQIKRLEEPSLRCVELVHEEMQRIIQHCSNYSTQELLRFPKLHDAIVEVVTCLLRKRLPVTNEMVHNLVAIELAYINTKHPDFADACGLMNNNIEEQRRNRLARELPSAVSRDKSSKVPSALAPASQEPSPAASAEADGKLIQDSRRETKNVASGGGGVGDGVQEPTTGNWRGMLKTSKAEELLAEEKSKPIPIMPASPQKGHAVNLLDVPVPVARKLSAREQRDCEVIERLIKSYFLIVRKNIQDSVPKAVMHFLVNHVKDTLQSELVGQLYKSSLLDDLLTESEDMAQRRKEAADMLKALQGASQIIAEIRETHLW
# The other results are listed elsewhere or left out. The list holds hits alone, and they repeat only in part.
# Experiments:
# Test in all cases: PRISMA enrichment of interactor (LFQ) in peptide spot vs all other peptide spots (log2 fold change); higher = stronger / more specific binding of the interactor to the peptide
# [1] = biological target: AGK, Q53H12
# Experimental: (§1)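 PRISMA: 15-aa overlapping tiles (offset 8 aa) of 60 microproteins, plus SOS1/GLUT1 control peptides, were spot-synthesized on cellulose membranes in triplicate. Membranes were incubated with benzonase-treated HEK293T lysate, and bound proteins were identified by LC-MS/MS with LFQ. Enrichment is the log2 fold change of each protein in one spot versus all other spots. Only interactors passing the significance cutoff are listed.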
# [2] = biological target: CCNT1, O60563
# Experimental: as §1
# [3] = biological target: DDX52, Q9Y2R4
# Experimental: as §1
# [4] = biological target: EIF1B, O60739
# Experimental: as §1
# [5] = biological target: GPAA1, O43292
# Experimental: as §1
# [6] = biological target: GTF3C5, Q9Y5Q8
# Experimental: as §1
# [7] = biological target: HOMER3, Q9NSC5
# Experimental: as §1
# [8] = biological target: MAGOHB, Q96A72
# Experimental: as §1
# [9] = biological target: PLAA, Q9Y263
# Experimental: as §1
# [10] = biological target: POLR2B, P30876
# Experimental: as §1
# [11] = biological target: PRRC2A, P48634
# Experimental: as §1
# [12] = biological target: RAB3GAP1, Q15042
# Experimental: as §1
# [13] = biological target: TAB2, Q9NYJ8
# Experimental: as §1
# [14] = biological target: UBAP2L, Q14157
# Experimental: as §1
# [15] = biological target: GPC1, P35052
# Experimental: as §1
# [16] = biological target: ITSN2, Q9NZM3
# Experimental: as §1
# [17] = biological target: NDC1, Q9BTX1
# Experimental: as §1
# [18] = biological target: NOP53, Q9NZM5
# Experimental: as §1
# [19] = biological target: NOP56, O00567
# Experimental: as §1
# [20] = biological target: SNX1, Q13596
# Experimental: as §1
# [21] = biological target: TNIK, Q9UKE5
# Experimental: as §1
# [22] = biological target: AGL, P35573
# Experimental: as §1
# [23] = biological target: CHPT1, Q8WUD6
# Experimental: as §1
# [24] = biological target: CRIPT, Q9P021
# Experimental: as §1
# [25] = biological target: CSNK2A2, P19784
# Experimental: as §1
# [26] = biological target: DDX28, Q9NUL7
# Experimental: as §1
# [27] = biological target: MAP4K4, O95819
# Experimental: as §1
# [28] = biological target: MRPL13, Q9BYD1
# Experimental: as §1
# [29] = biological target: MRPL40, Q9NQ50
# Experimental: as §1
# [30] = biological target: PCLAF, Q15004
# Experimental: as §1
# [31] = biological target: PPIL2, Q13356
# Experimental: as §1
# [32] = biological target: PPP1CA, P62136
# Experimental: as §1
# [33] = biological target: RPS6KA3, P51812
# Experimental: as §1
# [34] = biological target: SMU1, Q2TAY7
# Experimental: as §1
# [35] = biological target: AGPAT5, Q9NUQ2
# Experimental: as §1
# [36] = biological target: COX6B1, P14854
# Experimental: as §1
# [37] = biological target: DDX42, Q86XP3
# Experimental: as §1
# [38] = biological target: DNM1L, O00429
# Experimental: as §1
# [39] = biological target: EHHADH, Q08426
# Experimental: as §1
# [40] = biological target: FAM120A, Q9NZB2
# Experimental: as §1
# [41] = biological target: GPD1L, Q8N335
# Experimental: as §1
# [42] = biological target: PDP1, Q9P0J1
# Experimental: as §1
# [43] = biological target: RBM38, Q9H0Z9
# Experimental: as §1
# [44] = biological target: ZNF22, P17026
# Experimental: as §1
# [45] = biological target: ZNF616, Q08AN1
# Experimental: as §1
binder,measurement,setting,value
PFRQSSSLSRTFSSR [IDI2-AS1],PRISMA enrichment of interactor (log2),[1],5.69
same,PRISMA enrichment of interactor (log2),[2],4.88
same,PRISMA enrichment of interactor (log2),[3],5.41
same,PRISMA enrichment of interactor (log2),[4],4.18
same,PRISMA enrichment of interactor (log2),[5],6.05
same,PRISMA enrichment of interactor (log2),[6],5.07
same,PRISMA enrichment of interactor (log2),[7],5.31
same,PRISMA enrichment of interactor (log2),[8],8.5
same,PRISMA enrichment of interactor (log2),[9],4.65
same,PRISMA enrichment of interactor (log2),[10],5.55
same,PRISMA enrichment of interactor (log2),[11],4.44
same,PRISMA enrichment of interactor (log2),[12],6.7
same,PRISMA enrichment of interactor (log2),[13],5.24
same,PRISMA enrichment of interactor (log2),[14],7.94
IVNAKRFRSRIKTEA [CTC-471J1.11],PRISMA enrichment of interactor (log2),[1],5.2
same,PRISMA enrichment of interactor (log2),[15],4.68
same,PRISMA enrichment of interactor (log2),[16],4.97
same,PRISMA enrichment of interactor (log2),[17],6.29
same,PRISMA enrichment of interactor (log2),[18],5.99
same,PRISMA enrichment of interactor (log2),[19],4.53
same,PRISMA enrichment of interactor (log2),[20],6.39
same,PRISMA enrichment of interactor (log2),[21],5.81
LAAKGLRDPWGRNEA [NDUFB3],PRISMA enrichment of interactor (log2),[22],3.82
same,PRISMA enrichment of interactor (log2),[23],5.27
same,PRISMA enrichment of interactor (log2),[24],4.18
same,PRISMA enrichment of interactor (log2),[25],6.09
same,PRISMA enrichment of interactor (log2),[26],5.17
same,PRISMA enrichment of interactor (log2),[27],4.68
same,PRISMA enrichment of interactor (log2),[28],4.56
same,PRISMA enrichment of interactor (log2),[29],4.32
same,PRISMA enrichment of interactor (log2),[30],4.2
same,PRISMA enrichment of interactor (log2),[31],4.92
same,PRISMA enrichment of interactor (log2),[32],5.25
same,PRISMA enrichment of interactor (log2),[33],3.97
same,PRISMA enrichment of interactor (log2),[34],4.32
RLSFWSICRSLHHGP [PSMB8-AS1],PRISMA enrichment of interactor (log2),[35],4.82
same,PRISMA enrichment of interactor (log2),[36],5.4
same,PRISMA enrichment of interactor (log2),[37],8.89
same,PRISMA enrichment of interactor (log2),[38],7.28
same,PRISMA enrichment of interactor (log2),[39],5.05
same,PRISMA enrichment of interactor (log2),[40],4.69
same,PRISMA enrichment of interactor (log2),[41],4.38
same,PRISMA enrichment of interactor (log2),[42],10.3
same,PRISMA enrichment of interactor (log2),[43],5.05
same,PRISMA enrichment of interactor (log2),[44],4.31
same,PRISMA enrichment of interactor (log2),[45],6.17

# An excerpt of these results, as tab-separated lines:
binder	measurement	setting	value
PFRQSSSLSRTFSSR [IDI2-AS1]	PRISMA enrichment of interactor (log2)	[2]	4.88
same	PRISMA enrichment of interactor (log2)	[3]	5.41
same	PRISMA enrichment of interactor (log2)	[4]	4.18
